Laboratory results reported in patent US8202696.
These are yes or no findings as the source states them, for the method shown. Some entries that bind do so weakly or less than the wild type.

Molecular target: T1, MID1 B-box 1 (residues 110-165), yeast two-hybrid bait (human) (UniProt O15344)
T1 sequence: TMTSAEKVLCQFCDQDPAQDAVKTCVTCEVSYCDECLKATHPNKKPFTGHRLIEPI
Test: yeast two-hybrid, deletion studies with α4 (preliminary data)

binding: binds
Binder: ERPPVKPFILTRNMAQAKVFGAGYPSLPTMTVSDWYEQHRKYGA [small part of α4 (44 amino acids), yeast two-hybrid deletion construct]
